Measured values from patent US20180244776A1.
Where a chain is given by its changes, count along the chain named. These are yes or no findings as the source states them, for the method shown. Some binding calls cover weakened binding; strength is not graded here. One block for each binder: values may come before it.

How the values were obtained:
human Sema3A (human) [1] = target: T1, human Sema3A (human) (UniProt Q14563); experiment: ELISA, IgG at 500 nM and 50 nM, BSA as negative control
T1 sequence (looked up): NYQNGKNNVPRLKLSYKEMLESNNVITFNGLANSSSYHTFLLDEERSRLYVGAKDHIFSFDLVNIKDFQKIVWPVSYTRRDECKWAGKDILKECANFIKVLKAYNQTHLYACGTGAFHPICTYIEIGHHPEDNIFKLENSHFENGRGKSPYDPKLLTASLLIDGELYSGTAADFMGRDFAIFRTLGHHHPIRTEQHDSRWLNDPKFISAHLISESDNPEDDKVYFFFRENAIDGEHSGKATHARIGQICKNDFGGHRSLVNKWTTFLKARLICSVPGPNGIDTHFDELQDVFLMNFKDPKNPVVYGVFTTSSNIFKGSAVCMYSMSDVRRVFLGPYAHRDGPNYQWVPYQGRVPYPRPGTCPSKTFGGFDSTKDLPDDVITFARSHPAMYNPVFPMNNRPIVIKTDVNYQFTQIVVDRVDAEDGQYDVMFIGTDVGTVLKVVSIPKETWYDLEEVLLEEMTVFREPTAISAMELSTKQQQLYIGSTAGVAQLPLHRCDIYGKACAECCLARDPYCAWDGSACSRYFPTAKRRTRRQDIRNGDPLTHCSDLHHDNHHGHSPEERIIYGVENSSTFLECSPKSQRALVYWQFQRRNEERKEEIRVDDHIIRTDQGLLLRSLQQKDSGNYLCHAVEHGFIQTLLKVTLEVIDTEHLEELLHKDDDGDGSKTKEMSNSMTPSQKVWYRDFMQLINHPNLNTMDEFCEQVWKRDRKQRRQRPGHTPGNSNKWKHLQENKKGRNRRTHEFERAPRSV

mouse Sema3A (mouse) [2] = target: T2, mouse Sema3A (mouse) (UniProt O08665); experiment: as above
T2 sequence (looked up): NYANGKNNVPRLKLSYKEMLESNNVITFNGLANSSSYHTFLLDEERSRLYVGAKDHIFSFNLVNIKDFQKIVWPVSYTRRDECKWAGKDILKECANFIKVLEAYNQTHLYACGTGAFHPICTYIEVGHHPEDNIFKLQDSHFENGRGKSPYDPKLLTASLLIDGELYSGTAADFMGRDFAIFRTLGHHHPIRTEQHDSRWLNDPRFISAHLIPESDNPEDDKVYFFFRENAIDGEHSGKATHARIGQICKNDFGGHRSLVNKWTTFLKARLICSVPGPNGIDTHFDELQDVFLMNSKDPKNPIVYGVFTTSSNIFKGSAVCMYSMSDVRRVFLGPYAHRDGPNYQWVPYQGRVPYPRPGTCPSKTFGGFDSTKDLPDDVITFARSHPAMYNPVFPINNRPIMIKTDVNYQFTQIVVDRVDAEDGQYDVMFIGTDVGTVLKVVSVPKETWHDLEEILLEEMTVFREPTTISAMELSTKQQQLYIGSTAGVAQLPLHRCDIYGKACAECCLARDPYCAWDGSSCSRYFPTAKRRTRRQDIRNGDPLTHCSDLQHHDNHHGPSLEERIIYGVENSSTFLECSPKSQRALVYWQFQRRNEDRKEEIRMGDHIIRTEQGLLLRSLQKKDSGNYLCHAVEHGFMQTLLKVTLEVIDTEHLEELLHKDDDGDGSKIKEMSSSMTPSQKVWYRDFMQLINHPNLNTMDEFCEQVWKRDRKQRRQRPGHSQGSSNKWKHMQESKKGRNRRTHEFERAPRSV

human Sema3A (human) [3] = target: T1, human Sema3A (human); experiment: SPR, Biacore
mouse Sema3A (mouse) [4] = target: T2, mouse Sema3A (mouse); experiment: SPR, Biacore

binding (human Sema3A (human) [1]): binds | binding (mouse Sema3A (mouse) [2]): binds | binding (human Sema3A (human) [3]): binds | binding (mouse Sema3A (mouse) [4]): binds
B1: F11 anti-Sema3A IgG (antibody, V domains shown)
VH: EVQLLESGGGLVQTGGSLRLSCAASGFTFSDYAMSWVRQAPGKGLEWVSWIYYDSGSKYYADSVKGRFTISRDNSKNTLYLQMNSLRAEDTAVYYCAKLNGDFDYWGQGTLVTVSS
VL: QSVLTQPPSASGTPGQRVTISCSGSSSNIGNNDVSWYQQLPGTAPKLLIYADSHRPSGVPDRFSGSKSGTSASLAISGLRSEDEADYYCGAWDSSLSGYVFGGGTKLTVL

binding (human Sema3A (human) [1]): binds | binding (mouse Sema3A (mouse) [2]): binds | binding (human Sema3A (human) [3]): binds | binding (mouse Sema3A (mouse) [4]): binds
B2: C10 anti-Sema3A IgG (antibody, V domains shown)
VH: B1 VH with T14P, W50G, S55D, G56S, K58Q, K65E, K98R, L99Y, N100L, D102L
VL: B1 VL with D33S, S35N, A51S, H54Q, A91S, S94Y, G98A

binding (human Sema3A (human) [1]): binds | binding (mouse Sema3A (mouse) [2]): binds | binding (human Sema3A (human) [3]): binds | binding (mouse Sema3A (mouse) [4]): binds
B3: A08 anti-Sema3A IgG (antibody, V domains shown)
VH: B1 VH with T14P, W50G, S55D, G56S, K58Q, L99N, N100L, D102R
VL: B1 VL with S23T, N31S, D33A, S35T, A51D, S53N, S94D, G98A
